In PubChem BioAssay AID720706 (Broad Institute, 2013):
The other results are listed elsewhere or left out.

Experiment: reduced GFP signal of wild-type E. coli, primary screen, bacterial rRNA inhibitor project, GFP/RFP fluorescence, OD600, single point (AID 720706)
Conditions: E. coli WT GFP vs humanized-ribosome RFP mutants, 24 h; OD600 change: measured here: OD600 growth, DMSO median 0, no signal -100; RFP signal change: measured here: RFP humanized mutant strains, DMSO median 0, no signal -100, concentration not given here

Row | SMILES | OD600 change [%] | RFP signal change [%]
1 | CN(C(=O)Cc1ccc(Cl)c(Cl)c1)C1CCCC[C@@H]1N1CCCC1 (stereo partly drawn) | 3.08 | -1.12
2 | CCC1=CC2Cc3nc4ccc(Cl)cc4c(N)c3C(C1)C2 (stereo not drawn) | -79.5 | -12.7
3 | O=C(O)C(O)c1ccc(N(CCCl)CCCl)cc1.c1ccncc1 (stereo not drawn) | 8.63 | -0.015
4 | O=[N+]([O-])c1cc([N+](=O)[O-])c(-n2nnc3ccccc32)c([N+](=O)[O-])c1 | 16.4 | -1.02
5 | CCOP(=O)(NC(=NC(C)c1ccccc1)NC(C)c1ccccc1)OCC (stereo not drawn) | 3.02 | -1.55
6 | Nc1ccc(CCCCOc2ccccc2)cc1.O=[N+]([O-])c1cc([N+](=O)[O-])c(O)c([N+](=O)[O-])c1 | -20.1 | -5.31
7 | CCOP(=O)(Nc1ccc(C)cn1)OCC | 8.5 | 0.19
8 | O=P1(N(CCCl)CCCl)NCCC(C(F)(F)F)O1 (stereo not drawn) | 14.9 | -2.12
9 | CN(Cc1cccnc1)C(=O)COc1ccc(Cl)c(Cl)c1.O=[N+]([O-])c1cc([N+](=O)[O-])c(O)c([N+](=O)[O-])c1 | -5.14 | -0.66
10 | CC(C)(C)C(=O)NC(Sc1ncccn1)C(Cl)(Cl)Cl (stereo not drawn) | 5.54 | 2.61
11 | Cc1cc(C)cc(OP(C)(=O)Nc2ccccn2)c1 (stereo not drawn) | 2.74 | -4.14
12 | CP(=O)(Nc1cccc(Br)c1)Oc1ccccc1 (stereo not drawn) | -41 | -5.2
13 | Cc1ccc(NCCc2c([N+](=O)[O-])cc([N+](=O)[O-])cc2[N+](=O)[O-])cc1 | -5.33 | 3.41
14 | Nc1cccc2c([As](=O)(O)O)cccc12 | 14.5 | 30.6
15 | CCCOP(=S)(Nc1nc(N)cc(=O)[nH]1)OCCC | 2.95 | 2.7
16 | CCOP(=O)(Nc1cccc2ccccc12)OCC | 1.34 | 0.943
17 | O=C(OC1CN2CCC1CC2)c1ccc(Cl)cc1 (stereo not drawn) | 0.264 | 1.58

Row | SMILES | OD600 change [%] | RFP signal change [%]
18 | O=[As](O)(O)c1cccnc1 | 4.24 | -3.55
19 | COc1cc(C(=O)NCC2(N3CCOCC3)CCCCC2)cc(Cl)c1OC(C)C | -39.4 | -0.685
20 | COc1ccccc1OP(C)(=O)Nc1cccc(Br)c1 (stereo not drawn) | -8.9 | -0.963
21 | CS(=O)(=O)c1ccc(Cl)c(NC(=O)COC(=O)C(O)(c2ccccc2)c2ccccc2)c1 | -6.7 | 1.13
22 | O=[As](O)(c1cccc(O)c1)c1cccc(O)c1 | 3.35 | -1.91
23 | Cc1cc(C)cc(OP(C)(=O)Nc2ccc(C)cc2C)c1 (stereo not drawn) | -3.57 | 11.8
24 | CCOC(=O)c1ccc(NP(C)(=O)Oc2cc(C)cc(C)c2)cc1 (stereo not drawn) | -0.0605 | 4.64
25 | NC(=O)Nc1ccc([As](=O)(O)O)cc1 | 29.4 | -6.23
26 | N#CCCN(C(=O)COC(=O)C(O)(c1ccccc1)c1ccccc1)c1ccc(F)cc1 | 4.92 | -0.323
27 | CCOP1(=S)c2c(C)nn(CCC#N)c2N=C(c2ccc(F)cc2)N1C (stereo not drawn) | 2.42 | -0.88
28 | CN(C)C(=O)c1cc([N+](=O)[O-])cc2c1-c1c(cc([N+](=O)[O-])cc1[N+](=O)[O-])C2=O | 3.4 | -2.56
29 | CN(C(=O)Cc1ccc(Cl)c(Cl)c1)[C@H]1CC[C@@]2(CCCO2)C[C@@H]1N1CCCC1 | -1.81 | 0.893
30 | CCOP1(=S)c2c(C)nn(CCC#N)c2N=C(c2ccccc2F)N1C (stereo not drawn) | 3.33 | 1.6
31 | O=C(O)c1cccc(Nc2c([N+](=O)[O-])cc([N+](=O)[O-])cc2[N+](=O)[O-])c1 | 6.75 | -1.1
32 | O=P(Nc1nccs1)(Oc1ccccc1)Oc1ccccc1 | -2.77 | 0.0265
33 | Nc1ccccc1[As](=O)(O)c1ccccc1 | 2.48 | -1.96
34 | O=C(O)COc1ccc([As](=O)(O)O)cc1[N+](=O)[O-] | 12.6 | 3.1
